Results published in paper PMC6751184, “Heme and hemoglobin utilization by Mycobacterium tuberculosis” (Nature Communications, 2019).
Results are given in words; binding and its absence hold for the method and conditions named.

Target: DppA W442A of Mycobacterium tuberculosis, lacking the predicted signal peptide (M. tuberculosis) (UniProt A5U8Y9)
Assay: SEC; both purified

Substance: DppA W442A of Mycobacterium tuberculosis, lacking the predicted signal peptide (from UniProt A5U8Y9 26-541)
- binding: no binding
